The other results are listed elsewhere or left out.
Key:
Assay in all cases: glycan array binding signal (z-score within array); higher = stronger binding
Settings in all cases: glycan notation: IUPAC condensed, linker removed
Fuc(a1-2)Gal = target: Fuc(a1-2)Gal
In short: (§1)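 Glycan array data were curated from 3228 arrays in the Consortium for Functional Glycomics database and kept only where the protein sequence was available. Glycan names were converted to IUPAC-condensed notation, and columns mapping to the same glycan were averaged. The binding signal is a within-array Z-score, averaged across arrays of the same protein sequence at different concentrations or buffers and across linkers. Negative Z-scores can be read as non-binding.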

Fuc(a1-2)Gal(b1-3)GalNAc = target: Fuc(a1-2)Gal(b1-3)GalNAc
In short: as §1

[1] = target: Fuc(a1-2)Gal(b1-3)GalNAc(a1-3)[Fuc(a1-2)]Gal(b1-4)Glc
In short: as §1

[2] = target: Fuc(a1-2)Gal(b1-3)GalNAc(a1-3)[Fuc(a1-2)]Gal(b1-4)GlcNAc
In short: as §1

[3] = target: Fuc(a1-2)Gal(b1-3)GalNAc(b1-3)Gal
In short: as §1

[4] = target: Fuc(a1-2)Gal(b1-3)GalNAc(b1-3)Gal(a1-4)Gal(b1-4)Glc
In short: as §1

[5] = target: Fuc(a1-2)Gal(b1-3)GalNAc(b1-4)[Neu5Ac(a2-3)]Gal(b1-4)Glc
In short: as §1

Fuc(a1-2)Gal(b1-3)GlcNAc = target: Fuc(a1-2)Gal(b1-3)GlcNAc
In short: as §1

[6] = target: Fuc(a1-2)Gal(b1-3)GlcNAc(b1-2)Man(a1-3)[Fuc(a1-2)Gal(b1-3)GlcNAc(b1-2)Man(a1-6)]Man(b1-4)GlcNAc(b1-4)GlcNAc
In short: as §1

[7] = target: Fuc(a1-2)Gal(b1-3)GlcNAc(b1-2)Man(a1-3)[Fuc(a1-2)Gal(b1-3)GlcNAc(b1-2)Man(a1-6)]Man(b1-4)GlcNAc(b1-4)[Fuc(a1-6)]GlcNAc
In short: as §1

[8] = target: Fuc(a1-2)Gal(b1-3)GlcNAc(b1-3)Gal(b1-4)Glc
In short: as §1

[9] = target: Fuc(a1-2)Gal(b1-3)GlcNAc(b1-3)GalNAc
In short: as §1

[10] = target: Fuc(a1-2)Gal(b1-3)GlcNAc(b1-3)[Fuc(a1-2)Gal(b1-3)GlcNAc(b1-6)]GalNAc
In short: as §1

[11] = target: Fuc(a1-2)Gal(b1-3)GlcNAc(b1-3)[Gal(b1-4)GlcNAc(b1-6)]Gal(b1-4)Glc
In short: as §1

[12] = target: Fuc(a1-2)Gal(b1-3)GlcNAc(b1-3)[Neu5Ac(a2-6)Gal(b1-4)GlcNAc(b1-6)]Gal(b1-4)Glc
In short: as §1

[13] = target: Fuc(a1-2)Gal(b1-3)GlcNAc6S
In short: as §1

[14] = target: Fuc(a1-2)Gal(b1-3)[Fuc(a1-4)]GlcNAc
In short: as §1

[15] = target: Fuc(a1-2)Gal(b1-3)[Fuc(a1-4)]GlcNAc(b1-2)Man(a1-3)[Fuc(a1-2)Gal(b1-3)[Fuc(a1-4)]GlcNAc(b1-2)Man(a1-3)]Man(b1-4)GlcNAc(b1-4)GlcNAc
In short: as §1

[16] = target: Fuc(a1-2)Gal(b1-3)[Fuc(a1-4)]GlcNAc(b1-2)Man(a1-3)[Fuc(a1-2)Gal(b1-3)[Fuc(a1-4)]GlcNAc(b1-2)Man(a1-6)]Man(b1-4)GlcNAc(b1-4)[Fuc(a1-6)]GlcNAc(b1-4)[Fuc(a1-6)]GlcNAc
In short: as §1

[17] = target: Fuc(a1-2)Gal(b1-3)[Fuc(a1-4)]GlcNAc(b1-3)[Fuc(a1-3)[Gal(b1-4)]GlcNAc(b1-6)]Gal(b1-4)Glc
In short: as §1

[18] = target: Fuc(a1-2)Gal(b1-3)[Fuc(a1-4)]GlcNAc(b1-3)[Gal(b1-4)GlcNAc(b1-6)]Gal(b1-4)Glc
In short: as §1

[19] = target: Fuc(a1-2)Gal(b1-4)Fuc(a1-3)]GlcNAc(b1-2)Man(a1-3)[Fuc(a1-2)Gal(b1-4)[Fuc(a1-3)]GlcNAc(b1-2)Man(a1-6)]Man(b1-4)GlcNAc(b1-4)GlcNAc
In short: as §1

Fuc(a1-2)Gal(b1-4)Glc = target: Fuc(a1-2)Gal(b1-4)Glc
In short: as §1

Fuc(a1-2)Gal(b1-4)Glc6S = target: Fuc(a1-2)Gal(b1-4)Glc6S
In short: as §1

Fuc(a1-2)Gal(b1-4)GlcNAc = target: Fuc(a1-2)Gal(b1-4)GlcNAc
In short: as §1

[20] = target: Fuc(a1-2)Gal(b1-4)GlcNAc(b1-2)Man
In short: as §1

[21] = target: Fuc(a1-2)Gal(b1-4)GlcNAc(b1-2)Man(a1-3)[Fuc(a1-2)Gal(b1-4)GlcNAc(b1-2)Man(a1-6)]Man(b1-4)GlcNAc(b1-4)GlcNAc
In short: as §1

[22] = target: Fuc(a1-2)Gal(b1-4)GlcNAc(b1-2)Man(a1-3)[Fuc(a1-2)Gal(b1-4)GlcNAc(b1-2)Man(a1-6)]Man(b1-4)GlcNAc(b1-4)[Fuc(a1-6)]GlcNAc
In short: as §1

[23] = target: Fuc(a1-2)Gal(b1-4)GlcNAc(b1-2)[Fuc(a1-2)Gal(b1-4)GlcNAc(b1-4)]Man(a1-3)[Fuc(a1-2)Gal(b1-4)GlcNAc(b1-2)Man(a1-6)]Man(b1-4)GlcNAc(b1-4)GlcNAc
In short: as §1

[24] = target: Fuc(a1-2)Gal(b1-4)GlcNAc(b1-3)Gal(b1-4)GlcNAc
In short: as §1

[25] = target: Fuc(a1-2)Gal(b1-4)GlcNAc(b1-3)Gal(b1-4)GlcNAc(b1-2)Man(a1-3)[Fuc(a1-2)Gal(b1-4)GlcNAc(b1-3)Gal(b1-4)GlcNAc(b1-2)Man(a1-6)]Man(b1-4)GlcNAc(b1-4)GlcNAc
In short: as §1

[26] = target: Fuc(a1-2)Gal(b1-4)GlcNAc(b1-3)Gal(b1-4)GlcNAc(b1-3)Gal(b1-4)GlcNAc
In short: as §1

[27] = target: Fuc(a1-2)Gal(b1-4)GlcNAc(b1-3)GalNAc
In short: as §1

[28] = target: Fuc(a1-2)Gal(b1-4)GlcNAc(b1-3)[Fuc(a1-2)Gal(b1-4)GlcNAc(b1-6)]GalNAc
In short: as §1

[29] = target: Fuc(a1-2)Gal(b1-4)GlcNAc(b1-3)[Fuc(a1-3)[Gal(b1-4)]GlcNAc(b1-6)]Gal(b1-4)Glc
In short: as §1

[30] = target: Fuc(a1-2)Gal(b1-4)GlcNAc(b1-6)GalNAc
In short: as §1

[31] = target: Fuc(a1-2)Gal(b1-4)GlcNAc6S
In short: as §1

B1: Protein L(B1-B4) (Finegoldia magna), Q51912 (protein)
chain: KEETPETPETDSEEEVTIKANLIFANGSTQTAEFKGTFEKATSEAYAYADTLKKDNGEYTVDVADKGYTLNIKFAGKEKTPEEPKEEVTIKANLIYADGKTQTAEFKGTFEEATAEAYRYADALKKDNGEYTVDVADKGYTLNIKFAGKEKTPEEPKEEVTIKANLIYADGKTQTAEFKGTFEEATAEAYRYADLLAKENGKYTVDVADKGYTLNIKFAGKEKTPEEPKEEVTIKANLIYADGKTQTAEFKGTFAEATAEAYRYADLLAKENGKYTADLEDGGYTINIRFAG
With B1 the “glycan array binding signal (z-score)” value (Fuc(a1-2)Gal) was -0.829, the “glycan array binding signal (z-score)” value (Fuc(a1-2)Gal(b1-3)GalNAc) was -0.021 and the “glycan array binding signal (z-score)” value [1] was 1.12. The “glycan array binding signal (z-score)” value [2] was 0.034, the “glycan array binding signal (z-score)” value [3] was 0.572 and the “glycan array binding signal (z-score)” value [4] was -0.827. For the same binder, the “glycan array binding signal (z-score)” value [5] was -0.407, the “glycan array binding signal (z-score)” value (Fuc(a1-2)Gal(b1-3)GlcNAc) was -0.817 and the “glycan array binding signal (z-score)” value [6] was -0.445. For the same binder, the “glycan array binding signal (z-score)” value [7] was -0.466, the “glycan array binding signal (z-score)” value [8] was -0.618 and the “glycan array binding signal (z-score)” value [9] was 0.917. For the same binder, the “glycan array binding signal (z-score)” value [10] was 2.77, the “glycan array binding signal (z-score)” value [11] was -0.957 and the “glycan array binding signal (z-score)” value [12] was -0.274. For the same binder, the “glycan array binding signal (z-score)” value [13] was -0.304, the “glycan array binding signal (z-score)” value [14] was -0.294 and the “glycan array binding signal (z-score)” value [15] was 1.93. The “glycan array binding signal (z-score)” value [16] was 0.958, the “glycan array binding signal (z-score)” value [17] was -0.425 and the “glycan array binding signal (z-score)” value [18] was -0.528. For the same binder, the “glycan array binding signal (z-score)” value [19] was 1.7, the “glycan array binding signal (z-score)” value (Fuc(a1-2)Gal(b1-4)Glc) was -0.438 and the “glycan array binding signal (z-score)” value (Fuc(a1-2)Gal(b1-4)Glc6S) was -0.701. The “glycan array binding signal (z-score)” value (Fuc(a1-2)Gal(b1-4)GlcNAc) was -0.438, the “glycan array binding signal (z-score)” value [20] was -0.448 and the “glycan array binding signal (z-score)” value [21] was 1.14. For the same binder, the “glycan array binding signal (z-score)” value [22] was -0.565, the “glycan array binding signal (z-score)” value [23] was 2.47 and the “glycan array binding signal (z-score)” value [24] was -0.882. The “glycan array binding signal (z-score)” value [25] was 0.858, the “glycan array binding signal (z-score)” value [26] was 1.14 and the “glycan array binding signal (z-score)” value [27] was 1.03. The “glycan array binding signal (z-score)” value [28] was 1.03, the “glycan array binding signal (z-score)” value [29] was -0.897 and the “glycan array binding signal (z-score)” value [30] was 1.04. For the same binder, the “glycan array binding signal (z-score)” value [31] was -0.503.
